Measurements as given in the supplement of paper PMC10849652.
The list shows a part of the results.

The chains behind the UniProt entries cited, without tags or fusion partners. Where a name states a change or a piece, a line headed by the entry shows the natural chain unless it says otherwise.
UniProt P18669: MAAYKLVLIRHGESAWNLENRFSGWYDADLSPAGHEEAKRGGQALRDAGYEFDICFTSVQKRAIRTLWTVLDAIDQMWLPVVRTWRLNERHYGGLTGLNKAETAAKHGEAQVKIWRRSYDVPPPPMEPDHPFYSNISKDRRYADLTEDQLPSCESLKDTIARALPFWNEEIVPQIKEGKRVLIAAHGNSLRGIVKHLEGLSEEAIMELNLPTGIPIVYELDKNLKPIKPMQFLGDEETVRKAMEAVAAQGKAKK
UniProt P11498: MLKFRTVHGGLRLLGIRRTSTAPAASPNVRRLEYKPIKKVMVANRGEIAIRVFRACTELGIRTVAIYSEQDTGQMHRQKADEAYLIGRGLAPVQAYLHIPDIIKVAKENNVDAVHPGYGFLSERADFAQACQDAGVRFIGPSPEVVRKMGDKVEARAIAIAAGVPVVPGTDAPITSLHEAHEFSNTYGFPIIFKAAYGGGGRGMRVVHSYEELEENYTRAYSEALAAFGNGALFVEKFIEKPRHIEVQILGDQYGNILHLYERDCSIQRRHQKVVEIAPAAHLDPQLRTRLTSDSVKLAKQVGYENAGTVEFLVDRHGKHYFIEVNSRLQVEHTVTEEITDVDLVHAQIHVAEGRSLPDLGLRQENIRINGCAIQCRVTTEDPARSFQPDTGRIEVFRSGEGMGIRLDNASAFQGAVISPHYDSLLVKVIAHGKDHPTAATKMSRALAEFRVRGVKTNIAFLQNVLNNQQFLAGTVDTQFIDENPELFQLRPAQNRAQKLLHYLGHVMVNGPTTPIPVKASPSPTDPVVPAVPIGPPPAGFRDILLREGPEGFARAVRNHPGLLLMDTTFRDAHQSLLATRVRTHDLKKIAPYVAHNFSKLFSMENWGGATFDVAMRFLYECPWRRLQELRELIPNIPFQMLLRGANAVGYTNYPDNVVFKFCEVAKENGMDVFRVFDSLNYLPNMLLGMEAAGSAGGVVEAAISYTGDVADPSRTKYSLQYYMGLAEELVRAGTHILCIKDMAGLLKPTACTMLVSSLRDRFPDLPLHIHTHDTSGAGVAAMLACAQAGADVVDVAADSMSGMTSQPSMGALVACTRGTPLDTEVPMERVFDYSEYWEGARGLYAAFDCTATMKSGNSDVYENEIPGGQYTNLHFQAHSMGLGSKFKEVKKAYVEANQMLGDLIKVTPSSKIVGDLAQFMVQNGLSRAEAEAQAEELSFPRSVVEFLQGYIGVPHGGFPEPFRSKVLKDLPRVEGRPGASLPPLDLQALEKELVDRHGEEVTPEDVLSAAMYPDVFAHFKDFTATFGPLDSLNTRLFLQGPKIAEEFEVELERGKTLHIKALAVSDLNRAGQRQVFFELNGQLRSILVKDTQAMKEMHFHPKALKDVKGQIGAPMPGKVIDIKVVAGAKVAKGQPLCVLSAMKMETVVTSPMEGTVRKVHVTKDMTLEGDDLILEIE
UniProt Q15366, whole entry, looked up: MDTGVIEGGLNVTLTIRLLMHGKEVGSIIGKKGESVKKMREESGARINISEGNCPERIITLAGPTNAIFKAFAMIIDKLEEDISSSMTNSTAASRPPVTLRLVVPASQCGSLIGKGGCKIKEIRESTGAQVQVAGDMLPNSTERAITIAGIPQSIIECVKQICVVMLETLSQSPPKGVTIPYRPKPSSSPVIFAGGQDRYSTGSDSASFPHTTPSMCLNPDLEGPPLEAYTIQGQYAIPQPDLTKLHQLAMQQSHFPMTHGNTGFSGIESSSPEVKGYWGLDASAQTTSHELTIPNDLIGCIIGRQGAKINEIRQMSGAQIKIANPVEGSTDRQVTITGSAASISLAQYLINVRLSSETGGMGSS
UniProt O15212, whole entry, looked up: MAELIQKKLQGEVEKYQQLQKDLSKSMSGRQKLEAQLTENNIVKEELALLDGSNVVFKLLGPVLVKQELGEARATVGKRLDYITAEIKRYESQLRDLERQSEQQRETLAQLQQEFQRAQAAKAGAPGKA
UniProt P49585: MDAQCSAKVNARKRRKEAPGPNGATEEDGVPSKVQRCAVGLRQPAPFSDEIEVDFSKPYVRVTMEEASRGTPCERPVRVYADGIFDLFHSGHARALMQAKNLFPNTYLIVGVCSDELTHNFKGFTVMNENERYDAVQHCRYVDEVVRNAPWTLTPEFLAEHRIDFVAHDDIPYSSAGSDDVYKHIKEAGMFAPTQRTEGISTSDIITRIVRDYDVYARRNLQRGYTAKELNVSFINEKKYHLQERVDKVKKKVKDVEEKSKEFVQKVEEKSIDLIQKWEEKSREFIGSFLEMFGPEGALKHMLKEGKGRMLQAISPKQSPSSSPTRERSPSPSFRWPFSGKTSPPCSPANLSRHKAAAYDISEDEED
UniProt Q9NTI5: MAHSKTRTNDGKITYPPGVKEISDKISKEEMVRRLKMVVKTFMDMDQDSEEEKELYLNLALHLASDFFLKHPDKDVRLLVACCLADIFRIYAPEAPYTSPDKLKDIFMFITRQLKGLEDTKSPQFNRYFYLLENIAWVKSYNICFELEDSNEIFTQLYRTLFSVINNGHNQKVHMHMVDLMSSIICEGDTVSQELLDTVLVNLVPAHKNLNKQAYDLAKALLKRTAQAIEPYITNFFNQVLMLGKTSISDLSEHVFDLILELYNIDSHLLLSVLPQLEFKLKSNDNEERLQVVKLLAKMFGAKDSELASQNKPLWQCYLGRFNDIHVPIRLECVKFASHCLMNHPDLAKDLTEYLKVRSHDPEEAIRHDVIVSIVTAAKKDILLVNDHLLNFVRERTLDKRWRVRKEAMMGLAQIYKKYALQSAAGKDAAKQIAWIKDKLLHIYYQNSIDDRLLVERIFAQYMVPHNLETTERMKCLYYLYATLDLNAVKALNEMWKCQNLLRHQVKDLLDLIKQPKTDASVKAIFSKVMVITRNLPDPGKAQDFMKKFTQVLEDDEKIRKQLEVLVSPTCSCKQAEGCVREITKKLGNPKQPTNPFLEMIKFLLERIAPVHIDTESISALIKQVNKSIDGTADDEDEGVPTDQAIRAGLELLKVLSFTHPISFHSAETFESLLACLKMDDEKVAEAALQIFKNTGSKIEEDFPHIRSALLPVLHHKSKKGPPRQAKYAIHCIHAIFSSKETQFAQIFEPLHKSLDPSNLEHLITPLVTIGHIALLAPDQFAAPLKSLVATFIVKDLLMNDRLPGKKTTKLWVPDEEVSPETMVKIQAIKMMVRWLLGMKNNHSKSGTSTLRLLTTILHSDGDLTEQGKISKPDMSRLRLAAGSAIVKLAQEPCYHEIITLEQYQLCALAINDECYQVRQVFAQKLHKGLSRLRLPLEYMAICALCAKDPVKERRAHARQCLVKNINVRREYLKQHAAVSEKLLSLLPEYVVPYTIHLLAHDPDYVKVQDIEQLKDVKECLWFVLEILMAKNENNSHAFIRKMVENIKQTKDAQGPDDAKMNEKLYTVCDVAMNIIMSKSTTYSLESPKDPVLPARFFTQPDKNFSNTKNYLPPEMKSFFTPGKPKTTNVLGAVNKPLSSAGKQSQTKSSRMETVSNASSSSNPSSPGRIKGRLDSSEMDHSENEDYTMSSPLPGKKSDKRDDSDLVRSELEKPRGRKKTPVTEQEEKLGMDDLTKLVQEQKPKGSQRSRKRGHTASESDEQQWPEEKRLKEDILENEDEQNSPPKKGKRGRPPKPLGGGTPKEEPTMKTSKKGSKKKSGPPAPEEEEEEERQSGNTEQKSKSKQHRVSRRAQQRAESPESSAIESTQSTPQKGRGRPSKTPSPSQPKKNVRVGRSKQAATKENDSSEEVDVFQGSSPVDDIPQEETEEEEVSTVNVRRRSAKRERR
UniProt P30086: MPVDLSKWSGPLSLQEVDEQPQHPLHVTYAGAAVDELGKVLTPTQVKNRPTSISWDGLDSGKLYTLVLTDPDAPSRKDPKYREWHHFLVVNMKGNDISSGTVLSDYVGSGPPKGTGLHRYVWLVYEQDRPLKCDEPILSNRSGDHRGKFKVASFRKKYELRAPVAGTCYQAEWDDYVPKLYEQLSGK
UniProt Q9BUH6, whole entry, looked up: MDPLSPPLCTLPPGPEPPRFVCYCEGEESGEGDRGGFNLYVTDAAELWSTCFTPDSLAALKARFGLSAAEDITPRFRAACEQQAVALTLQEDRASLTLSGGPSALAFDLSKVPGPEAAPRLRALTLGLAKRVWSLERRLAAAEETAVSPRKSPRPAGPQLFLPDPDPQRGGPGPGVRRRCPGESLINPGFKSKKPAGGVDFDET
UniProt Q96HS1, whole entry, looked up: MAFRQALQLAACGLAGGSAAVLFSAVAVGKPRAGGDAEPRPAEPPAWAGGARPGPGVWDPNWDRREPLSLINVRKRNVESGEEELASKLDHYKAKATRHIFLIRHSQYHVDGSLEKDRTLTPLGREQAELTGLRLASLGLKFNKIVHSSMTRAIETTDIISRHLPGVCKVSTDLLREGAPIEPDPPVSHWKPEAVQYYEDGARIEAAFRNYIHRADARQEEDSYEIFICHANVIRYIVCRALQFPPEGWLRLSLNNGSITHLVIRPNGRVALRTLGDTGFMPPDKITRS
UniProt O96011: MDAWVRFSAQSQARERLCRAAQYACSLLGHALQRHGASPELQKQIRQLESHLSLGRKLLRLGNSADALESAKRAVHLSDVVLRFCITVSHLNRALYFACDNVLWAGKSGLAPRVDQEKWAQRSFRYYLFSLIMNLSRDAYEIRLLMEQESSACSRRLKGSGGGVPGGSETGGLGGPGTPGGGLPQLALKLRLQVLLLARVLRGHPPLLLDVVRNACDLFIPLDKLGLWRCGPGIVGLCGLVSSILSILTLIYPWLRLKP
UniProt P17858: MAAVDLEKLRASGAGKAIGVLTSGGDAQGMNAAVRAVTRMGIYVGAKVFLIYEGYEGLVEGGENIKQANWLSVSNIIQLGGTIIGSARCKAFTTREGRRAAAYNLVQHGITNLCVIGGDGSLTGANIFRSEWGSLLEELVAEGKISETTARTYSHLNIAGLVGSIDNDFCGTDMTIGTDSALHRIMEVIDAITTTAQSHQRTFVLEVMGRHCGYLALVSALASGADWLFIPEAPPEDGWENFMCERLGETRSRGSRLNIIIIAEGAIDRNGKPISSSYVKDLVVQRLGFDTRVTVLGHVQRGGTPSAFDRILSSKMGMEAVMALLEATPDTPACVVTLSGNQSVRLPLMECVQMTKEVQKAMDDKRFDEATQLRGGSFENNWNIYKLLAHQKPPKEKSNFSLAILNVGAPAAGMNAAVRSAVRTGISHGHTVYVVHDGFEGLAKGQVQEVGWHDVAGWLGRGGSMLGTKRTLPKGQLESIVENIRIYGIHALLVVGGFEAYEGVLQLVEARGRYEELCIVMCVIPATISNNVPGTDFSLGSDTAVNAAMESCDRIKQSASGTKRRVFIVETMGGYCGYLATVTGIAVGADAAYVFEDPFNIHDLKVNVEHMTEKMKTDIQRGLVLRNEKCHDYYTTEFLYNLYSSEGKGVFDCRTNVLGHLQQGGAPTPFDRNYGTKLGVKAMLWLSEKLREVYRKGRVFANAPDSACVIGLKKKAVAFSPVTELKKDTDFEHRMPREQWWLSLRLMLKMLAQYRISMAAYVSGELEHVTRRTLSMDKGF
UniProt Q92968: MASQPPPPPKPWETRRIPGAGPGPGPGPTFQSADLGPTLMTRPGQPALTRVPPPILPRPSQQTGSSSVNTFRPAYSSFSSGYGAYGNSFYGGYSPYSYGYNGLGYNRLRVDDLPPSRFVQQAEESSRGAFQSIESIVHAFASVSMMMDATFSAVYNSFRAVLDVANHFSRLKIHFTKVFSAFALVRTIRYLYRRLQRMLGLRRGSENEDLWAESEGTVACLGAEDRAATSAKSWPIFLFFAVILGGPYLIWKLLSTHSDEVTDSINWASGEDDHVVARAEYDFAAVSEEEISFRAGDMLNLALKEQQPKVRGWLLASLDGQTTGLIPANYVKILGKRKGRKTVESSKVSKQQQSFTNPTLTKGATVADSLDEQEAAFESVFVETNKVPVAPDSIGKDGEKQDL
UniProt P61457: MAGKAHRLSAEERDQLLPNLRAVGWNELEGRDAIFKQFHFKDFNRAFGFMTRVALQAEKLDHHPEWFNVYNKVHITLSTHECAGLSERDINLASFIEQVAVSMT
UniProt Q9UGN5: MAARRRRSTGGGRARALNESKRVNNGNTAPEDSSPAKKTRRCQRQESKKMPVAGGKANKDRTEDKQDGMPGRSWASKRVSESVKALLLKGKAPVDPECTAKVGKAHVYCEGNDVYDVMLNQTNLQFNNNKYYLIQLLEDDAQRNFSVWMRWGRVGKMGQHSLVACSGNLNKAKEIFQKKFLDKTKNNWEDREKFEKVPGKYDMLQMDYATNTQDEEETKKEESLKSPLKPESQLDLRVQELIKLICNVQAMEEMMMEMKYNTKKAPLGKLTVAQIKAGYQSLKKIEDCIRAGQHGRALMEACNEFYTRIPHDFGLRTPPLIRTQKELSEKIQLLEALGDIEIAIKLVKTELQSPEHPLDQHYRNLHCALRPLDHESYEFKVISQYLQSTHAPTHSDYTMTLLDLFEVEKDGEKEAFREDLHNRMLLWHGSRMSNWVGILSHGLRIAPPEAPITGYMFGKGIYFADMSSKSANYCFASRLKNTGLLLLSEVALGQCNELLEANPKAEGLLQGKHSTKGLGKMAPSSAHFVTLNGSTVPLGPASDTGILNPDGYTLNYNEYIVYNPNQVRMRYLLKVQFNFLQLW

These targets were tested with CC1=C(C=C(C=C1)NC(=O)C2=CC(=CC=C2)N(C)C)NC(=O)C3=CC=C(C=C3)O (assay: log2 fold change, soluble protein after heating vs DMSO (PISA); higher = thermal stabilisation; K562 lysate, 10 uM; active = over 0.2 and 3.5 SD of the protein, either way, in both replicates (recomputed)).
Procedure, shortened: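 Soluble protein was defined as the supernatant remaining after 21,000xg for 90 min, following pooling of heated aliquots and adjustment to 0.5% NP-40 at 4°C. Before that, crude K562 extract at 1 mg/mL protein in PBS pH 7.4 with 1 mM MgCl2 was treated with 10 μM compound for 30 min and heated for 3 min across 48°C-58°C. Quantification used TMTpro 16plex LC-MS/MS with channel sums equalised, and values are log-two fold changes in thermal stability relative to solvent controls from duplicates.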
PDCD2 (UniProt Q16342) was tested, and the log2 fold change was inactive: 0.012.
PGAM1 (UniProt P18669) was tested, and the log2 fold change was inactive: -0.03.
In the case of PDCD6IP isoform 2 (UniProt Q8WUM4), the log2 fold change is reported as inactive: 0.029.
PC (UniProt P11498) was tested, and the log2 fold change was inactive: 0.024.
With PCBP2 isoform 3 (UniProt Q15366) the log2 fold change was inactive: -0.016.
PCIF1 (UniProt Q9H4Z3) was tested, and the log2 fold change was inactive: 0.025.
In the case of PFDN6 (UniProt O15212), the log2 fold change is reported as inactive: -0.006.
For PCYT1A (UniProt P49585), the log2 fold change was inactive: 0.042.
With PCBP3 (UniProt P57721) the log2 fold change was inactive: -0.02.
PDS5B (UniProt Q9NTI5) was tested, and the log2 fold change was inactive: 0.001.
PEBP1 (UniProt P30086) was tested, and the log2 fold change was inactive: -0.014.
With PAXX (UniProt Q9BUH6) the log2 fold change was inactive: 0.048.
PFDN5 (UniProt Q99471) was tested, and the log2 fold change was inactive: 0.019.
For PGAM5 (UniProt Q96HS1), the log2 fold change was inactive: 0.036.
PEX11B (UniProt O96011) was tested, and the log2 fold change was inactive: 0.003.
In the case of PFKL isoform 2 (UniProt P17858), the log2 fold change is reported as inactive: -0.004.
For PEPD (UniProt P12955), the log2 fold change was inactive: -0.003.
PEX13 (UniProt Q92968) was tested, and the log2 fold change was inactive: -0.047.
In the case of PCBD1 (UniProt P61457), the log2 fold change is reported as inactive: 0.016.
For PARN (UniProt O95453), the log2 fold change was inactive: 0.028.
PARP2 (UniProt Q9UGN5) was tested, and the log2 fold change was inactive: -0.003.
With PELP1 (UniProt Q8IZL8) the log2 fold change was inactive: 0.029.
For PDCD10 (UniProt Q9BUL8), the log2 fold change was inactive: -0.02.
